These results are taken from publication PMC11904993, “Humanized Candida and NanoBiT Assays Expedite Discovery of Bdf1 Bromodomain Inhibitors With Antifungal Potential” (Advanced Science, 2025).

Protein sequences, listed by entry. Tags and fused reporters are not part of them.
UniProt P34730: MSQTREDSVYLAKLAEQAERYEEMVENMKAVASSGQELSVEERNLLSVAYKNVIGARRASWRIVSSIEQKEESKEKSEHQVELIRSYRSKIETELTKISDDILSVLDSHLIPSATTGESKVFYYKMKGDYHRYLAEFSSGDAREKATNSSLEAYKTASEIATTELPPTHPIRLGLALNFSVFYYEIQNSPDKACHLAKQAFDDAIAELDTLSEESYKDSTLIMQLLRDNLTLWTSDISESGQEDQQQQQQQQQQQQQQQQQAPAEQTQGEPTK
UniProt P29311: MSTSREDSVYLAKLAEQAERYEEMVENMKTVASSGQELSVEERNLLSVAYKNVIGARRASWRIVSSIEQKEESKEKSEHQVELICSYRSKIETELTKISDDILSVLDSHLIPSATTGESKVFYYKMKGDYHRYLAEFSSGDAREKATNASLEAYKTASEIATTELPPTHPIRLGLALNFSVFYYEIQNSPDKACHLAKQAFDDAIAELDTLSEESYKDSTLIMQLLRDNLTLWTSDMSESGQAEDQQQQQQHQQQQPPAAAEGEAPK

Assay [1] has as its target S. cerevisiae Bmh2 (NanoBiT fusion) (S. cerevisiae) (UniProt P34730). The experiment in a line: split reporter; NanoBiT in live S. cerevisiae grown overnight at 30 °C in SC(MSG) with serial dilutions of 24c or I-BET726; luminescence normalised to the Bdf1/Swc4 and Bmh1/Bmh2 controls.
Assay [2] has as its target T1, S. cerevisiae Swc4 (NanoBiT fusion) (S. cerevisiae) (UniProt P53201).
T1 sequence: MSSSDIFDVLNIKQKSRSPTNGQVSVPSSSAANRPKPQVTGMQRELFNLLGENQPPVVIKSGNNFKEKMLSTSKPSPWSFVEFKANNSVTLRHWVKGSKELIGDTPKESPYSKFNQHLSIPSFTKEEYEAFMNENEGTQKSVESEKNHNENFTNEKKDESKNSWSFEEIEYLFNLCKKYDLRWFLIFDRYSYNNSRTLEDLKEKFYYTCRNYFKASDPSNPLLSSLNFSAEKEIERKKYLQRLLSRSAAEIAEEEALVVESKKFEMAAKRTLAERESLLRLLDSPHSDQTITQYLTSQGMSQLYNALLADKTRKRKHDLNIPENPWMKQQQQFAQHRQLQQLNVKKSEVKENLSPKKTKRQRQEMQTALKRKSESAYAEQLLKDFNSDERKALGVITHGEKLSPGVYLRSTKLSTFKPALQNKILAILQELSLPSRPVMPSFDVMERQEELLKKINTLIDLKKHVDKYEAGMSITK
Described as above.

Results are given in words; binding and its absence hold for the method and conditions named. Binding seen in cells or lysates may run through a third protein. Some results given as binding are weak or reduced against the parent protein; the word gives no strength. For some assays here: Tags and fused reporters may be left off the sequences shown.

Turning to “S. cerevisiae Bmh1 (NanoBiT fusion) (from UniProt P29311 1-267)”, the binding entry in assay [1] is listed as “binds”.

B1: S. cerevisiae Bdf1-SmBiT (protein, UniProt P35817 1-686)
chain: MTDITPVQNDVDVNGNNVNDDVSSNLKRPIDQGDPSNGLAEEENPANNQLHLKKARLDGDALTSSPAGLAENGIEGATLAANGENGYNATGSGAEDEQQGLKKEEGGQGTKQEDLDENSKQELPMEVPKEPAPAPPPEPDMNNLPQNPIPKHQQKHALLAIKAVKRLKDARPFLQPVDPVKLDIPFYFNYIKRPMDLSTIERKLNVGAYEVPEQITEDFNLMVNNSIKFNGPNAGISQMARNIQASFEKHMLNMPAKDAPPVIAKGRRSSAQEDAPIVIRRAQTHNGRPKRTIHPPKSKDIYPYESKKPKSKRLQQAMKFCQSVLKELMAKKHASYNYPFLEPVDPVSMNLPTYFDYVKEPMDLGTIAKKLNDWQYQTMEDFERDVRLVFKNCYTFNPDGTIVNMMGHRLEEVFNSKWADRPNLDDYDSDEDSRTQGDYDDYESEYSESDIDETIITNPAIQYLEEQLARMKVELQQLKKQELEKIRKERRLARGSKKRGKRSKGRSGSKNASSKGRRDKKNKLKTVVTYDMKRIITERINDLPTSKLERAIDIIKKSMPNISEDDEVELDLDTLDNHTILTLYNTFFRQYESSSGASNGLDGTSGVTRDASSLSPTSAGSRKRRSKALSQEEQSRQIEKIKNKLAILDSASPLSQNGSPGQIQSAAHNGFSSSSDDDVSSESEEE
B1: the binding result in assay [2] is on record as “binds”.
